{"source": "PubChem BioAssay AID322", "about": "(DTP/NCI, 2004)", "tested_on": "CD2F1 mice, P388/ADR leukemia ip, median survival T/C", "experiment": "NCI In Vivo Anticancer Drug Screen. Data for tumor model P388 Leukemia resistant to Adriamycin; NSC 123127, Developed at Scr 08 (intraperitoneal) in CD2F1 (CDF1) mice", "settings": "T/C endpoint: median survival time, schedule: Q01DX005 (ip), higher T/C = longer survival", "method": "The antitumor activity of compounds was measured in mice bearing transplantable tumors. Survival or tumor size were measured and the results are expressed as the measurement made in the treated group (T) divided by the measurement made in the vehicle treated control group (C). The tumor model used in this assay is P388 Leukemia resistant to Adriamycin; NSC 123127, Developed at Scr 08 (intraperitoneal) in CD2F1 (CDF1) mice", "key": {"[1]": {"settings": "dose: 100.0 mg/kg/injection, vehicle: saline with Tween-80"}, "[2]": {"settings": "dose: 200.0 mg/kg/injection, vehicle: saline with Tween-80"}}, "note": "The list shows only some results of the screen, not a fair sample: it is rich in T/C values a quarter to a half above the control, in often repeated tests (any T/C) and in doses without a T/C. Further doses and runs are listed elsewhere. T/C is the treated group as % of the vehicle group. Some doses have a count of surviving animals in place of a T/C: the source files T/C as zero there, which appears to mark a toxic dose or a test without result, not a measured value. Some survivor counts are full or nearly so, which does not show that the dose was tolerated: the source hardly ever lists a survival T/C far under the control, and the zero likely stands for such cases as well. Survivors were counted at the toxicity check, usually on the fifth day, unless a day is given; later deaths do not show. Schedule codes are those of the source, read here as Q, the interval in days (D) or hours (H), X, the number of doses. Signs of the kind (2×) give the number of equal values in this list. Some doses were run more than once; their values stand side by side, smallest first. Where survival is the endpoint, the PubChem record calls one and a half times the control and up active, and a quarter to a half above the control has no call in these data; cut-offs in other NCI protocols can differ."}
{"smiles": "COC(=O)[C@@]12OC[C@]34[C@H]([C@@H](O)[C@@H]1O)[C@@]1(C)CC(=O)C(OC(=O)CC(=O)OC5=C(C)[C@@H]6C[C@H]7OC(=O)[C@H](OC(=O)/C=C(\\C)C(C)C)[C@H]8[C@]9(C(=O)OC)OC[C@]78[C@H]([C@@H](O)[C@@H]9O)[C@@]6(C)CC5=O)=C(C)[C@@H]1C[C@H]3OC(=O)[C@H](OC(=O)/C=C(\\C)C(C)C)[C@@H]24", "values": [{"measurement": "T/C", "setting": "dose: 0.37 mg/kg/injection, vehicle: saline + Tween-80 + alcohol", "value": "126 % of control"}, {"measurement": "T/C", "setting": "dose: 0.75 mg/kg/injection, vehicle: saline + Tween-80 + alcohol", "value": "134 % of control"}, {"measurement": "T/C", "setting": "dose: 1.5 mg/kg/injection, vehicle: saline + Tween-80 + alcohol", "value": "140 % of control"}, {"measurement": "T/C", "setting": "dose: 3.0 mg/kg/injection, vehicle: saline + Tween-80 + alcohol", "value": "130 % of control"}, {"measurement": "T/C", "setting": "dose: 6.0 mg/kg/injection, vehicle: saline + Tween-80 + alcohol", "value": "130 % of control"}]}
{"smiles": "COc1nc(C(Cl)(Cl)Cl)c(Cl)c(OC)c1Cl", "values": [{"measurement": "T/C", "setting": "dose: 37.0 mg/kg/injection, vehicle: Klucel (hydroxypropylcellulose) (HPC)", "value": "128 % of control"}, {"measurement": "T/C", "setting": "dose: 50.0 mg/kg/injection, vehicle: Klucel (hydroxypropylcellulose) (HPC)", "value": "130 % of control"}, {"measurement": "T/C", "setting": "dose: 67.0 mg/kg/injection, vehicle: Klucel (hydroxypropylcellulose) (HPC), evaluated on day 45", "value": "143 % of control"}, {"measurement": "T/C", "setting": "dose: 67.0 mg/kg/injection, vehicle: Klucel (hydroxypropylcellulose) (HPC), evaluated on day 46", "value": "126 % of control"}, {"measurement": "T/C", "setting": "dose: 90.0 mg/kg/injection, vehicle: Klucel (hydroxypropylcellulose) (HPC)", "value": "144 % of control"}, {"measurement": "T/C", "setting": "dose: 120.0 mg/kg/injection, vehicle: Klucel (hydroxypropylcellulose) (HPC)", "value": "141 % of control"}]}
{"smiles": "O=C1C=CC2OC(c3ccccc3)C(O)C2O1", "note": "(configuration not stated)", "values": [{"measurement": "T/C", "setting": "dose: 25.0 mg/kg/injection, vehicle: saline with Tween-80", "value": "132 % of control"}]}
{"smiles": "N=C(N)c1ccc(N=NNc2ccc(C(=N)N)cc2)cc1", "values": [{"measurement": "survivor count", "setting": "[1]", "value": "0 of 10"}, {"measurement": "survivor count", "setting": "[2]", "value": "0 of 10"}]}
{"smiles": "C[C@H](N)C(=O)N[C@@H]1[C@H]2C(=C(O)C[C@@H](O)[C@@H]2O)C(=O)O[C@@H]1C", "values": [{"measurement": "survivor count", "setting": "dose: 2400.0 mg/kg/injection, vehicle: saline", "value": "1 of 10 and 7 of 10"}]}
{"smiles": "O=P1(N(CCCl)CCCl)NCCCO1", "note": "(configuration not stated)", "values": [{"measurement": "T/C", "setting": "dose: 6.25 mg/kg/injection, vehicle: saline", "value": "140 and 144 % of control"}, {"measurement": "T/C", "setting": "dose: 12.5 mg/kg/injection, vehicle: saline", "value": "147 % of control"}]}
{"smiles": "CCOC1NC(=O)Oc2ccccc21", "note": "(configuration not stated)", "values": [{"measurement": "survivor count", "setting": "dose: 12.5 mg/kg/injection, vehicle: Klucel (hydroxypropylcellulose) (HPC)", "value": "10 of 10"}, {"measurement": "T/C", "setting": "dose: 200.0 mg/kg/injection, vehicle: Klucel (hydroxypropylcellulose) (HPC)", "value": "133 % of control"}, {"measurement": "survivor count", "setting": "dose: 400.0 mg/kg/injection, vehicle: Klucel (hydroxypropylcellulose) (HPC)", "value": "2 of 10"}, {"measurement": "survivor count", "setting": "dose: 556.0 mg/kg/injection, vehicle: Klucel (hydroxypropylcellulose) (HPC)", "value": "0 of 10"}]}
{"smiles": "COc1cc2c(c3c1c(=O)c1ccccc1n3C)C=CC(C)(C)O2", "values": [{"measurement": "survivor count", "setting": "[1]", "value": "10 of 10"}, {"measurement": "survivor count", "setting": "[2]", "value": "0 of 10"}]}
{"smiles": "CN(Cc1cnc2nc(N)nc(N)c2n1)c1ccc(C(=O)N[C@@H](CCC(=O)O)C(=O)O)cc1", "values": [{"measurement": "T/C", "setting": "dose: 0.38 mg/kg/injection, vehicle: sodium bicarbonate", "value": "145 % of control"}, {"measurement": "T/C", "setting": "dose: 0.75 mg/kg/injection, vehicle: sodium bicarbonate", "value": "142 % of control"}, {"measurement": "T/C", "setting": "dose: 1.5 mg/kg/injection, vehicle: sodium bicarbonate", "value": "149 % of control"}, {"measurement": "survivor count", "setting": "dose: 6.0 mg/kg/injection, vehicle: sodium bicarbonate", "value": "10 of 10 (2×)"}]}
